Values as published with doi:10.1371/journal.pone.0140310, rounded.

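The test systems are human melanoma cell lines, treated with two drugs together for 72 h and then stained and imaged. The read-out is the fraction of cleaved-PARP-positive nuclei, in % of that fraction in the DMSO control; 200 means twice the control level of this apoptosis marker. Concentrations were fixed for each drug; these are the higher of two levels. No replicate spread is given; individual values may be noisy. Basal and induced levels differ widely between cell lines.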 Only some of the drugs and lines screened are listed, without regard to their results. A dash means that no value is listed here.

Drug key:
SU6656: CN(C)S(=O)(=O)c1ccc2c(c1)/C(=C/c1cc3c([nH]1)CCCC3)C(=O)N2 at 2000 nM
sunitinib: CCN(CC)CCNC(=O)c1c(C)[nH]c(/C=C2\C(=O)Nc3ccc(F)cc32)c1C at 2000 nM
dovitinib: CN1CCN(c2ccc3nc(-c4c(N)c5c(F)cccc5[nH]c4=O)[nH]c3c2)CC1 at 500 nM
GSK650394: O=C(O)c1ccc(-c2c[nH]c3ncc(-c4ccccc4)cc23)cc1C1CCCC1 at 800 nM
ENMD-2076: Cc1cc(Nc2cc(N3CCN(C)CC3)nc(/C=C/c3ccccc3)n2)n[nH]1 at 200 nM
GW441756: Cn1cc(/C=C2\C(=O)Nc3cccnc32)c2ccccc21 at 2000 nM
nilutamide: CC1(C)NC(=O)N(c2ccc([N+](=O)[O-])c(C(F)(F)F)c2)C1=O at 5000 nM
GW9662: O=C(Nc1ccccc1)c1cc([N+](=O)[O-])ccc1Cl at 10000 nM

| Drugs | MZ2-MEL | RPMI-7951 | A375 |
|---|---|---|---|
| GW9662 + dovitinib | 146 | 217 | 61.7 |
| SU6656 + ENMD-2076 | 336 | 297 | - |
| GW441756 + GW9662 | 79.0 | 273 | 82.6 |
| GW441756 + SU6656 | 47.8 | 161 | 52.3 |
| sunitinib + nilutamide | - | 350 | - |
| nilutamide + GW441756 | 56.8 | 30.9 | 81.5 |
| GW9662 + ENMD-2076 | 120 | 41.7 | 71.7 |
| SU6656 + nilutamide | 153 | 222 | - |
| GSK650394 + sunitinib | 116 | 95.2 | - |
| SU6656 + dovitinib | 392 | 53.0 | - |
| GW441756 + ENMD-2076 | 113 | 133 | 120 |
| sunitinib + SU6656 | 203 | 93.7 | - |
| dovitinib + GSK650394 | 1060 | 135 | - |
| GSK650394 + ENMD-2076 | 179 | 51.7 | - |
| GW441756 + GSK650394 | 55.4 | 75.1 | 59.1 |
| ENMD-2076 + nilutamide | 134 | 71.2 | - |
| dovitinib + sunitinib | 265 | 152 | 133 |
| SU6656 + GSK650394 | 507 | 60.4 | - |
| dovitinib + ENMD-2076 | 441 | 103 | 63.2 |
| dovitinib + GW441756 | 229 | 294 | 184 |
| GSK650394 + GW9662 | 147 | 85.5 | 70.1 |

The last 2 entries again:

Drugs,MZ2-MEL,RPMI-7951,A375
dovitinib + GW441756,229,294,184
GSK650394 + GW9662,147,85.5,70.1